The record followed here is the supplement of paper PMC7666118.

Chains of the proteins cited; added tags and fusions are not shown. Lines headed by an entry give the natural chain unless they say otherwise; changes in a name come on top.
UniProt Q9H497: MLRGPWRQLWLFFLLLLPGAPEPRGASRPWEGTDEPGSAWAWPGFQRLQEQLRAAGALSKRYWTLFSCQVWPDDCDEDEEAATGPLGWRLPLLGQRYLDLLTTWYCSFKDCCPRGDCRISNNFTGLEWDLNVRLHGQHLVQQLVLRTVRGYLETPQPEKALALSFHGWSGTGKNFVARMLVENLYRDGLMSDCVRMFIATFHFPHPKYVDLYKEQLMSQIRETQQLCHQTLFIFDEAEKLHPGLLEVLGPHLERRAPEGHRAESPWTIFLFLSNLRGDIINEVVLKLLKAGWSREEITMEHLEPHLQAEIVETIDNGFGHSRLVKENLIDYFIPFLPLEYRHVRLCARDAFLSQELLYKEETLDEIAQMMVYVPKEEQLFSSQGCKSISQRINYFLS
UniProt Q9NVV0: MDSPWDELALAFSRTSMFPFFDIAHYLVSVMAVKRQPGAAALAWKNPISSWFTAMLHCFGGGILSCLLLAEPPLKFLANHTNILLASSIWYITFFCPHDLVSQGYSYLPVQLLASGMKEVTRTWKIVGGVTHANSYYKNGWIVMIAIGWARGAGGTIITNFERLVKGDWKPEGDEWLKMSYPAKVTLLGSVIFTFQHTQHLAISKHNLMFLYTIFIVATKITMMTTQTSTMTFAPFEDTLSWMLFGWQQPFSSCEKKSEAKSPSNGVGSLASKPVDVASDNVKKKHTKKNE
UniProt Q9Y490: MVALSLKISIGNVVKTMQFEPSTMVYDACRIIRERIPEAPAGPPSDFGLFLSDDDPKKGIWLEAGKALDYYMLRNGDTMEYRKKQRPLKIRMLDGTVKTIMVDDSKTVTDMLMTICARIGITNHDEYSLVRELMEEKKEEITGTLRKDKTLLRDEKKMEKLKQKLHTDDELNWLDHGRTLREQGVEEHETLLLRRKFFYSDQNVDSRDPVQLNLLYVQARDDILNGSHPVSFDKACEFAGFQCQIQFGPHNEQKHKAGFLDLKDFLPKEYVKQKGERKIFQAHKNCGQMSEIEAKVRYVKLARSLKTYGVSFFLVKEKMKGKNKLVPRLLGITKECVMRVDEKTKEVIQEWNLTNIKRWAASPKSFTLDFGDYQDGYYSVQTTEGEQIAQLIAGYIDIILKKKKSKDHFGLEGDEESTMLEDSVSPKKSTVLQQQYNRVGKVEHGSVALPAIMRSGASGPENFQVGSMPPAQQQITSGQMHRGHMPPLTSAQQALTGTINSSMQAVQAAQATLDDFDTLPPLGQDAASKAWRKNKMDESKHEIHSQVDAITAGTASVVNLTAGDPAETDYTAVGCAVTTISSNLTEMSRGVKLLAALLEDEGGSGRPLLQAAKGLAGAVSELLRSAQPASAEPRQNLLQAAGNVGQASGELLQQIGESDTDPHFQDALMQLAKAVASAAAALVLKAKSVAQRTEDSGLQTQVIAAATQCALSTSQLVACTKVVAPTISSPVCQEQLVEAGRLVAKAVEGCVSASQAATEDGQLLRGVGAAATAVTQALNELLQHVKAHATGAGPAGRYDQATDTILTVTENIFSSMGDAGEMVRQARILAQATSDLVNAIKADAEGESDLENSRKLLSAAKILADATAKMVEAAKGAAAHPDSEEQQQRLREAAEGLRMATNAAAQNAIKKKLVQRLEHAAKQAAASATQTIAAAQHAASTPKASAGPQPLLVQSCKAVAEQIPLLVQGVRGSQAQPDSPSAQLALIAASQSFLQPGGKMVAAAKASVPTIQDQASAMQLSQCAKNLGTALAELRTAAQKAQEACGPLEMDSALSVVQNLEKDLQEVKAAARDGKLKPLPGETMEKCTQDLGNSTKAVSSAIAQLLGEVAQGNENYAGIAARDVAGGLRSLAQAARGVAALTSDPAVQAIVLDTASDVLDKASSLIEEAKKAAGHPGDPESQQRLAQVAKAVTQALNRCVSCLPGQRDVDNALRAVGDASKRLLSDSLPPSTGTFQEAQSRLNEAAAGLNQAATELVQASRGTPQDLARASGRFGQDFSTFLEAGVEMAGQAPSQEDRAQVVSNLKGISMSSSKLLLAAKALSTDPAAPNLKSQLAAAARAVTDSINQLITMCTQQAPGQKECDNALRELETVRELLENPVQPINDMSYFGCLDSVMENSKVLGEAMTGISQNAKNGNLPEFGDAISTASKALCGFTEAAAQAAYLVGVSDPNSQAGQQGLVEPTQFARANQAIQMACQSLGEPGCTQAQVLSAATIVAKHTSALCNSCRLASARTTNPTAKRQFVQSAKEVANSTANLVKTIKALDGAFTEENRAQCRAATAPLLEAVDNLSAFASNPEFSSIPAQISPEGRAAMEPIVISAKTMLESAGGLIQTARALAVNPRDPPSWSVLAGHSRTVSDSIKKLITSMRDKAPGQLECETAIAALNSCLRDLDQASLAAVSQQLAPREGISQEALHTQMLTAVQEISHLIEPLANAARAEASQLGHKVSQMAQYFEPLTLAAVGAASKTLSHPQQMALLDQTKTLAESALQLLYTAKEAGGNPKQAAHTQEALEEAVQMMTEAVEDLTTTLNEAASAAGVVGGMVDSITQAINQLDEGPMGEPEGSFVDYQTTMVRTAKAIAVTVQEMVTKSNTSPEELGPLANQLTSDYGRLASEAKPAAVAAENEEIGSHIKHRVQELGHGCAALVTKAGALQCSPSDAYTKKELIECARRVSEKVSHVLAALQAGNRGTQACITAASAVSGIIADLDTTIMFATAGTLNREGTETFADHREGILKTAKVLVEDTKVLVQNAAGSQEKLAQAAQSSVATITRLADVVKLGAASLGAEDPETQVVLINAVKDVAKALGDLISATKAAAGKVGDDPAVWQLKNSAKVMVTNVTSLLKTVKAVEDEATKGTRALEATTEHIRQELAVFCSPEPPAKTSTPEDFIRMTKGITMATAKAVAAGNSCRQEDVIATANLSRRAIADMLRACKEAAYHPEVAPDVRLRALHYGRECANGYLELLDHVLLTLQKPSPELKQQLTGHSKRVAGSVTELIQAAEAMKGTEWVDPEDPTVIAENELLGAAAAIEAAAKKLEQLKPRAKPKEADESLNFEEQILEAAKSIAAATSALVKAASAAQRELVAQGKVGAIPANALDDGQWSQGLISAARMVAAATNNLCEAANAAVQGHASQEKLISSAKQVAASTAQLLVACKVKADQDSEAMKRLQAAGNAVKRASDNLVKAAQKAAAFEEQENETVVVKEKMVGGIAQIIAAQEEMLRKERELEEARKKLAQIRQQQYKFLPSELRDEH
UniProt Q8IY95: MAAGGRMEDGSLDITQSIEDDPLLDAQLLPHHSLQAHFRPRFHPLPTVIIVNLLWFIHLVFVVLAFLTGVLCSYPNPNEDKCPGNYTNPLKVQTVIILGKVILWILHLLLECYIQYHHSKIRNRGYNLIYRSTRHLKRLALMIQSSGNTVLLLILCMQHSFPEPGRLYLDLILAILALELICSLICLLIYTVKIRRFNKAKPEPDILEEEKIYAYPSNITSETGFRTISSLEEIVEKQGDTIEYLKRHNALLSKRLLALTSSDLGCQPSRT
UniProt Q9P0T7: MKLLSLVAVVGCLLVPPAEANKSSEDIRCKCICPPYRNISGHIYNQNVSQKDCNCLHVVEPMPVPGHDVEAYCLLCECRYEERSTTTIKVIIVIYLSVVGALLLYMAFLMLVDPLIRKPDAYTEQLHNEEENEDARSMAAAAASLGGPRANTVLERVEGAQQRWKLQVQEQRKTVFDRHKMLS
UniProt Q6NXT6: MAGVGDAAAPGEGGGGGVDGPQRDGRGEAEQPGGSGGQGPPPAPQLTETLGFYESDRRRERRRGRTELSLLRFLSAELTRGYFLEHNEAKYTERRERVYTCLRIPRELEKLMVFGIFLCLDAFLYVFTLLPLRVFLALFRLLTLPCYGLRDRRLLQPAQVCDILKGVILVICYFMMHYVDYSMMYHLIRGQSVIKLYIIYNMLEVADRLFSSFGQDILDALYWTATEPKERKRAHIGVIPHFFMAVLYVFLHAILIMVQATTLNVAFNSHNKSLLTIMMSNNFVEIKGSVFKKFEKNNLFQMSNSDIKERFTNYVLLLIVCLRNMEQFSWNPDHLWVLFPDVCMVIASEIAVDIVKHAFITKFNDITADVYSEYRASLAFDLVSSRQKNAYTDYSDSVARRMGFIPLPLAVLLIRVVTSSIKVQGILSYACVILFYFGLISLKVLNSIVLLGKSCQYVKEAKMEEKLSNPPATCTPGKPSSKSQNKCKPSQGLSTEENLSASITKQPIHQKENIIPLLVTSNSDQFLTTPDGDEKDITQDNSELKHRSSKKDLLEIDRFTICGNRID
UniProt Q9UPU7: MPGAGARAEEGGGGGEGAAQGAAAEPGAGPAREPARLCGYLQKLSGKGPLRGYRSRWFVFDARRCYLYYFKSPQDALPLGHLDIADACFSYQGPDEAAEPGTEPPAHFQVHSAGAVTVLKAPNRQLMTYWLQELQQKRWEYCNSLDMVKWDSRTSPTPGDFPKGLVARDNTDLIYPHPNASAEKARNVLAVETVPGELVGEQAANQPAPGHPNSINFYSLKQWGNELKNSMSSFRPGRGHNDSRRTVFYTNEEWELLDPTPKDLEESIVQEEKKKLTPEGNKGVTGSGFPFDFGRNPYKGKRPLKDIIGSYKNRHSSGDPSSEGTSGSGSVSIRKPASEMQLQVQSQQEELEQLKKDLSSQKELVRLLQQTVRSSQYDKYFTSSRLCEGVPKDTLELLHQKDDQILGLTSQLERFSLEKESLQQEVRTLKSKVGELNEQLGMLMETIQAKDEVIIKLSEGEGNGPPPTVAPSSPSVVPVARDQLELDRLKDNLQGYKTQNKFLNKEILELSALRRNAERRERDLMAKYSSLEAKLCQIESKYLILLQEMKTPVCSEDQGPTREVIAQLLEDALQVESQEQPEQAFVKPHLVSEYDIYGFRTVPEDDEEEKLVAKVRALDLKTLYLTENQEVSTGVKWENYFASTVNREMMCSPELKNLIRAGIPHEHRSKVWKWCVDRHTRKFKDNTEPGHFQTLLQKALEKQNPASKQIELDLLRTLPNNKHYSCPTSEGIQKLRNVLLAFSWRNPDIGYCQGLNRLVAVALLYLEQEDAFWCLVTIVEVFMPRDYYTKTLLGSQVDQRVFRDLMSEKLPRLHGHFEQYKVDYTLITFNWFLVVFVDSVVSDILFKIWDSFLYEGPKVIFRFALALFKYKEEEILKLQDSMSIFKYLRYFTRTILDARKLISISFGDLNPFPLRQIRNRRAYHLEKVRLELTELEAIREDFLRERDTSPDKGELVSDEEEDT
UniProt Q99081: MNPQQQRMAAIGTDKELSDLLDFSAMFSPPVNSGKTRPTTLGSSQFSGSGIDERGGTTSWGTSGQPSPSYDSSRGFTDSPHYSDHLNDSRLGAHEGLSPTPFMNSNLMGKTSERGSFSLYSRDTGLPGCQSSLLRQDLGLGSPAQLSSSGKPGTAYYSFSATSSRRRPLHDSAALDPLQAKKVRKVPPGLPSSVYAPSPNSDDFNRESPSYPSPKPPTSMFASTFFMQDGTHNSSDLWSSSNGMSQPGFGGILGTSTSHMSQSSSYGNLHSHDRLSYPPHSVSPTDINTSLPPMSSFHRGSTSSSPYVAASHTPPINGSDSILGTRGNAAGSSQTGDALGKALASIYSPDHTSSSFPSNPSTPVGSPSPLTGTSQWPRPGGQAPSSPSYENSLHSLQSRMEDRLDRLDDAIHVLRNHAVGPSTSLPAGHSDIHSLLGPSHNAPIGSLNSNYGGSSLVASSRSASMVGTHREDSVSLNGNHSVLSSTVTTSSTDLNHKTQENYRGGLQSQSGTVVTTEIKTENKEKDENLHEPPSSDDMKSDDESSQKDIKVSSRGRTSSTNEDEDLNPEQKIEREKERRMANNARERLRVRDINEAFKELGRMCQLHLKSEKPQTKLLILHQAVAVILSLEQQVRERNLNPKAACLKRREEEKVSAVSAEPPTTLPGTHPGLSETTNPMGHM
UniProt Q9H0V1: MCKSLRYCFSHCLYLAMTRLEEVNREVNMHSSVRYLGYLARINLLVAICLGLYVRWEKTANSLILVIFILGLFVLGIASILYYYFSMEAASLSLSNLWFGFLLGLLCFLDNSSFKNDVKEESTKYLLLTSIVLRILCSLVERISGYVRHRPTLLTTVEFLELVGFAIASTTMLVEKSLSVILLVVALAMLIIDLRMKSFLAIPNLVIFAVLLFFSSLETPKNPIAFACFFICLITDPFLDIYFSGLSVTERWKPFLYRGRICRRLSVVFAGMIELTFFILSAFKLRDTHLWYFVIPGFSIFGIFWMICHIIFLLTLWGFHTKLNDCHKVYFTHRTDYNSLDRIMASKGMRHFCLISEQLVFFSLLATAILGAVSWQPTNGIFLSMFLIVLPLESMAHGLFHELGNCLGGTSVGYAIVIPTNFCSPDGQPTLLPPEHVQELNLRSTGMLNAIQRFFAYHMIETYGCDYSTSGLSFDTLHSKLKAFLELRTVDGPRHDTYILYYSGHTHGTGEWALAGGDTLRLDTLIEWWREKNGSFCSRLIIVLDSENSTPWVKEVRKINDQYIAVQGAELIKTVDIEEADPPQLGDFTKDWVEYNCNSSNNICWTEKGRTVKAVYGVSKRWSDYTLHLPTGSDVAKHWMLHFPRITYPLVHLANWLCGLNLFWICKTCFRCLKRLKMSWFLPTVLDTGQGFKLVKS

Some of the results follow.

Compound in this assay: COc1ccc(Cn2ccc3ccc(C(=O)NO)cc32)cc1
Briefly: dose-dependent thermal stabilisation call (2D-TPP, DLPTP, 10% FDR) (binary (1 = stabilised)); higher = stabilised by the compound. Conditions: system: HL-60 intact cells; concentration range 0.04-10 µM.
For TMEM161A (UniProt Q9NX61), the “dose-dependent thermal stabilisation call” value is inactive: 0. For the target TOR3A (UniProt Q9H497), the “dose-dependent thermal stabilisation call” value is inactive: 0.

TCERG1 (UniProt O14776): the “dose-dependent thermal stabilisation call” value was inactive: 0. As to TMEM165 (UniProt Q9HC07), the “dose-dependent thermal stabilisation call” value is inactive: 0. For the target TMEM38B (UniProt Q9NVV0), the “dose-dependent thermal stabilisation call” value was inactive: 0. As for TPRG1L (UniProt Q5T0D9), the “dose-dependent thermal stabilisation call” value was inactive: 0. In the case of TLN1 (UniProt Q9Y490), the “dose-dependent thermal stabilisation call” value was inactive: 0. To TMEM65 (UniProt Q6PI78) belongs inactive: 0; to THTPA (UniProt Q9BU02), inactive: 0; to TMEM85 (UniProt Q5J8M3), inactive: 0.

With TMTC3 (UniProt Q6ZXV5), the “dose-dependent thermal stabilisation call” value was inactive: 0. With TAOK3 (UniProt Q9H2K8), the “dose-dependent thermal stabilisation call” value was inactive: 0. Consider TCEB3 (UniProt Q14241), for which the “dose-dependent thermal stabilisation call” value was inactive: 0. To TMEM11 (UniProt P17152) belongs inactive: 0; to TMEM111 (UniProt Q9P0I2), inactive: 0; to TCEA1 (UniProt P23193), inactive: 0. Consider TBC1D7 (UniProt Q9P0N9), for which the “dose-dependent thermal stabilisation call” value was inactive: 0. Regarding TNKS1BP1 (UniProt Q9C0C2), the “dose-dependent thermal stabilisation call” value was inactive: 0. Take TMEM192 (UniProt Q8IY95): the “dose-dependent thermal stabilisation call” value was inactive: 0. The value for TOMM70A (UniProt O94826) was inactive: 0; that for TMEM9 (UniProt Q9P0T7) was inactive: 0.

Consider TAPT1 (UniProt Q6NXT6), for which the “dose-dependent thermal stabilisation call” value was inactive: 0. Take TIMM9 (UniProt Q9Y5J7): the “dose-dependent thermal stabilisation call” value is inactive: 0.

Take TBC1D2B (UniProt Q9UPU7): the “dose-dependent thermal stabilisation call” value was inactive: 0. Turning to TPD52L2 (UniProt O43399), the “dose-dependent thermal stabilisation call” value is inactive: 0. Turning to TMF1 (UniProt P82094), the “dose-dependent thermal stabilisation call” value is inactive: 0. For the target TMOD3 (UniProt Q9NYL9), the “dose-dependent thermal stabilisation call” value is inactive: 0.

With TCF12 (UniProt Q99081), the “dose-dependent thermal stabilisation call” value was inactive: 0. The value for TIMM50 (UniProt Q3ZCQ8) was inactive: 0. The value for TATDN3 (UniProt Q17R31) was inactive: 0; that for TOLLIP (UniProt Q9H0E2) was inactive: 0. Take THOC2 (UniProt Q8NI27): the “dose-dependent thermal stabilisation call” value was inactive: 0.

In the case of TMEM168 (UniProt Q9H0V1), the “dose-dependent thermal stabilisation call” value was inactive: 0. The value for TAP2 (UniProt Q03519) was inactive: 0; that for TARDBP (UniProt Q13148) was inactive: 0.

TCF3 (UniProt P15923): the “dose-dependent thermal stabilisation call” value was inactive: 0.

Take TMED5 (UniProt Q9Y3A6): the “dose-dependent thermal stabilisation call” value was inactive: 0. Consider TNFAIP2 (UniProt Q03169), for which the “dose-dependent thermal stabilisation call” value was inactive: 0.
